Data from patent US20240335465A1 (University of Virginia Patent Foundation, priority 2021, published 2024).
No constants are given. Whether binding was seen depends on the method and setting. Binding seen in cells or lysates may run through a third protein. Some results given as binding are weak or reduced against the parent protein; the word gives no strength.

The chains behind the UniProt entries cited, without tags or fusion partners. Residues count along the entry.
UniProt Q13315, residues 2-3056: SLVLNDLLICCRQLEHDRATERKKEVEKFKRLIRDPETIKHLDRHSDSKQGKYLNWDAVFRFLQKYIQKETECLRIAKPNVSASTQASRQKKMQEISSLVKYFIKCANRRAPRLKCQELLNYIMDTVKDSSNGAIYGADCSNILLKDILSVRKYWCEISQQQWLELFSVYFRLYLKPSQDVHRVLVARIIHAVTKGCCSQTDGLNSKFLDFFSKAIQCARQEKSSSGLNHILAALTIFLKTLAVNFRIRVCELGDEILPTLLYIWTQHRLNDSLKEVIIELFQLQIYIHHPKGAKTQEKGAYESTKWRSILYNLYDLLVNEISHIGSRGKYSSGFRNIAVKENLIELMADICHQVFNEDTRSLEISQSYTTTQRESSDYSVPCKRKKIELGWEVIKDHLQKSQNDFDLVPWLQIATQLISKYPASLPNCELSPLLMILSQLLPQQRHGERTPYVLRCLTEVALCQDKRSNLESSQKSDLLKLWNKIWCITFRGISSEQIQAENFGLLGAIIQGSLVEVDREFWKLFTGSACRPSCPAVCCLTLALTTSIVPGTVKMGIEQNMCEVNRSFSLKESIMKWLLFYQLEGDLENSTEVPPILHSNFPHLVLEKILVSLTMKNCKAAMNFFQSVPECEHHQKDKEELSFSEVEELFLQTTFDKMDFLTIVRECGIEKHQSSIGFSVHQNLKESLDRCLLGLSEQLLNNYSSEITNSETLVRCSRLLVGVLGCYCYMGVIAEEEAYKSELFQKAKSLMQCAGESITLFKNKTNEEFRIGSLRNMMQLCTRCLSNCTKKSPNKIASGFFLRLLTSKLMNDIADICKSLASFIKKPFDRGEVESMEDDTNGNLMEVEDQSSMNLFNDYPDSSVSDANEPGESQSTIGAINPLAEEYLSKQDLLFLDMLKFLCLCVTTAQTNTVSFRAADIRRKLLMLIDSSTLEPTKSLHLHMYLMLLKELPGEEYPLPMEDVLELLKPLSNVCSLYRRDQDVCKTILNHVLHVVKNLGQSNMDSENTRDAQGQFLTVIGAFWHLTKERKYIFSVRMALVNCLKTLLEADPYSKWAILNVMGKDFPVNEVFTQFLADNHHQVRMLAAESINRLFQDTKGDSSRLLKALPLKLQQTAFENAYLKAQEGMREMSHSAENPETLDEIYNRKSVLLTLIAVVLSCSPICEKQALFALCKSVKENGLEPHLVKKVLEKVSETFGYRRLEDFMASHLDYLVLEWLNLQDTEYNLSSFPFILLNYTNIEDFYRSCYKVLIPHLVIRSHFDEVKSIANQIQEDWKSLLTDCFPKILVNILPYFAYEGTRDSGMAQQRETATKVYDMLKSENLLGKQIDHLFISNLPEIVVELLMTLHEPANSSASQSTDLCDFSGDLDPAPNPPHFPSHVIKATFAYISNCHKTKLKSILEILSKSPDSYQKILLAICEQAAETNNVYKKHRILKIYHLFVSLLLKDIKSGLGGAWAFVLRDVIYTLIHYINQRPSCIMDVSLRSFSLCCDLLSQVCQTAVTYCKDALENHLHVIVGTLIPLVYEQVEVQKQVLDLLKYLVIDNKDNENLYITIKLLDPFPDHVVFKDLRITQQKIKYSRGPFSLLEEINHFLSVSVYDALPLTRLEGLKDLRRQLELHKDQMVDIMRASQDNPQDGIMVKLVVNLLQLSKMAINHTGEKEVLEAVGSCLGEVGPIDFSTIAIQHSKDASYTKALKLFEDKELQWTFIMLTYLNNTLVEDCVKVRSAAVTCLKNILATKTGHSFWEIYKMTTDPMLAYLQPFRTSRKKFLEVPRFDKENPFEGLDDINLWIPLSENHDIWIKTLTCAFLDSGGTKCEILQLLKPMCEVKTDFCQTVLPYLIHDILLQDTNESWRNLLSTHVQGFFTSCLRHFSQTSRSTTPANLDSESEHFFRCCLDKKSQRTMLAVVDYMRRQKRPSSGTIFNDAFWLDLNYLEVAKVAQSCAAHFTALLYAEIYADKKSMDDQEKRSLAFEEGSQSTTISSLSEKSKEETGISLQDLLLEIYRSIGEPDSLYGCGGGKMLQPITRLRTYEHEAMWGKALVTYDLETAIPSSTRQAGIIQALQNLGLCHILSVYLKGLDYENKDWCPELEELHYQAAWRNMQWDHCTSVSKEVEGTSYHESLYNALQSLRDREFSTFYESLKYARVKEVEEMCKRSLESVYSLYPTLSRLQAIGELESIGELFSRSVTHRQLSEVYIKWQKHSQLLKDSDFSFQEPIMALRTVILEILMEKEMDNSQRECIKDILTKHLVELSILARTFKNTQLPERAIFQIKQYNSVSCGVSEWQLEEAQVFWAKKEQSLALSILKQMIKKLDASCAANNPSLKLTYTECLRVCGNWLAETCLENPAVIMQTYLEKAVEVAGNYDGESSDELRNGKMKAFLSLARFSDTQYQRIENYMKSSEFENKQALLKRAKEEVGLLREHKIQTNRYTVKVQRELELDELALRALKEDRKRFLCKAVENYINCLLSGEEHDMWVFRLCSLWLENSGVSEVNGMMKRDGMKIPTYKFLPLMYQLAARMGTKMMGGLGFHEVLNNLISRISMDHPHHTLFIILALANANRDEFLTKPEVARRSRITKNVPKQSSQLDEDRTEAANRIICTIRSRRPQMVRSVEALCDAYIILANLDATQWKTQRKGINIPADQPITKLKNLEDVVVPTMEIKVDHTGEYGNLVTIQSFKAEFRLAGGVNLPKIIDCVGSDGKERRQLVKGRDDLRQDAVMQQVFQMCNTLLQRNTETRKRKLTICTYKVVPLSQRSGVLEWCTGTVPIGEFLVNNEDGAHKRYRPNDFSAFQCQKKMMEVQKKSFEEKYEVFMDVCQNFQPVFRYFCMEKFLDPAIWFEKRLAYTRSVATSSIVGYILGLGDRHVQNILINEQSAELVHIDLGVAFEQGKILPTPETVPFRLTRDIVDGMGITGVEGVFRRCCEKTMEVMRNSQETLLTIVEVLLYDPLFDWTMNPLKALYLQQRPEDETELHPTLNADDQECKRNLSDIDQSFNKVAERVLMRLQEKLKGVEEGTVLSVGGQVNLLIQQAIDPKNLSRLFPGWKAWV

What was measured:
[1] = biological target: endogenous ATM immunoprecipitated from cells of FIG. 5I (UniProt Q13315); assay: co-immunoprecipitation: ATM IP from treated cells, immunoblot for TBK1
[2] = biological target: endogenous ATM immunoprecipitated from cells of FIG. 5I (UniProt Q13315); assay: co-immunoprecipitation: ATM IP from treated cells, immunoblot for TBK1 (FIG. 5I)

B1: endogenous TBK1 in cells of FIG. 5I (enzyme, UniProt Q9UHD2 1-729, looked up)
chain: MQSTSNHLWLLSDILGQGATANVFRGRHKKTGDLFAIKVFNNISFLRPVDVQMREFEVLKKLNHKNIVKLFAIEEETTTRHKVLIMEFCPCGSLYTVLEEPSNAYGLPESEFLIVLRDVVGGMNHLRENGIVHRDIKPGNIMRVIGEDGQSVYKLTDFGAARELEDDEQFVSLYGTEEYLHPDMYERAVLRKDHQKKYGATVDLWSIGVTFYHAATGSLPFRPFEGPRRNKEVMYKIITGKPSGAISGVQKAENGPIDWSGDMPVSCSLSRGLQVLLTPVLANILEADQEKCWGFDQFFAETSDILHRMVIHVFSLQQMTAHKIYIHSYNTATIFHELVYKQTKIISSNQELIYEGRRLVLEPGRLAQHFPKTTEENPIFVVSREPLNTIGLIYEKISLPKVHPRYDLDGDASMAKAITGVVCYACRIASTLLLYQELMRKGIRWLIELIKDDYNETVHKKTEVVITLDFCIRNIEKTVKVYEKLMKINLEAAELGEISDIHTKLLRLSSSQGTIETSLQDIDSRLSPGGSLADAWAHQEGTHPKDRNVEKLQVLLNCMTEIYYQFKKDKAERRLAYNEEQIHKFDKQKLYYHATKAMTHFTDECVKKYEAFLNKSEEWIRKMLHLRKQLLSLTNQCFDIEEEVSKYQEYTNELQETLPQKMFTASSGIKHTMTPIYPSSNTLVEMTLGMKKLKEEMEGVVKELAENNHILERFGSLTMDGGLRNVDCL
- binding [1]: binds
- binding [2]: binds
